Reference: patent CN117886935A
These are yes or no findings as the source states them, for the method shown. Some binding calls cover weakened binding; strength is not graded here.

Amino acid sequences for entries named in this document (tags omitted). Residues count along the entry.
UniProt P07333, residues 20-512: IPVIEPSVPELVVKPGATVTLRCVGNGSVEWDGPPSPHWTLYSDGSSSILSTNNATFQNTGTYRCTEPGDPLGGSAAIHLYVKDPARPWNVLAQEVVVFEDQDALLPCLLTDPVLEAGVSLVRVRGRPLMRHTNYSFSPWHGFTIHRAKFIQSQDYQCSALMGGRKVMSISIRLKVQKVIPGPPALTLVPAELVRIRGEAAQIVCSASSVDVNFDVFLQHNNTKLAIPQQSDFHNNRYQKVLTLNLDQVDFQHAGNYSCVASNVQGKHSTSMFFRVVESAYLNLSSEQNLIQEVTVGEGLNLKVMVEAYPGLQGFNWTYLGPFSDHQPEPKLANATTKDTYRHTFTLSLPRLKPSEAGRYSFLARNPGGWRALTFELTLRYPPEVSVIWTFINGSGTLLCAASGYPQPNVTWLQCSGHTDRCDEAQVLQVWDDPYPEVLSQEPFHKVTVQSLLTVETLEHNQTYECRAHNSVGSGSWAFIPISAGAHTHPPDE

Target: 人CSF-1R-his重组蛋白 (human CSF-1R-his recombinant protein) (human) (UniProt P07333)
Test: BLI (ForteBio)

binding | Binder
binds | hz73 (antibody, V domains shown) VH: EVQLVQSGAEVKKPGASVKVSCKASGYTFTDYNMDWVRQAPGQGLEWMGDIIPNYDSATYNQKFKGRVTMTRDTSTSTVYMELSSLRSEDTAVYYCARKGGGYVNWYFDVWGQGTTVTVSS VL: DIQMTQSPSSLSASVGDRVTITCHASQNINVWLSWYQQKPGKAPKLLIYKASNLHTGVPSRFSGSGSGTDFTFTISSLQPEDIATYYCQQGESYPYTFGGGTKVEIK
binds | ch73 (antibody, human IgG1, kappa, V domains shown) VH: EVQLQQFGAELVKPGASVKISCKASGYTFTDYNMDWMKQSHGKSLEWIGDIIPNYDSATYNQKFKGKATLTVDRSSSTAYMELRSLSSEDTAVYYCARKGGGYVNWYFDVWGAGTTVTVSS VL: DIQMNQSPSSLSASLGDTITITCHASQNINVWLSWYQQKPGNIPKLLIYKASNLHTGVPSRFSGSGSGTGFTLTISSLQPEDIATYYCQQGESYPYTFGGGTKLEIKR
